{"source": "PubChem BioAssay AID504784 – Drosophila RNAi Screening Center | 2011", "purpose": "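Fly genes whose silencing alters how much lipid cells keep in droplets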 (primary screen)", "system": "Drosophila Kc167 embryonic cells", "reagent": "long dsRNA against Drosophila genes, about 250 ng dsRNA per well", "time to read-out": "4 days", "conditions": "cells fed 400 µM oleic acid bound to BSA", "detection": "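Cells imaged and segmented; ratio of lipid droplet area to nuclear area, log-transformed, then normalised as a B-score over the screen; higher means more stored lipid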", "reading the numbers": "droplet/nuclear area B-score: higher = more stored lipid (overstorage)", "note": "The screen tested about 17,000 reagents; this is an unselected part of those that have a named target and a result. 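Each column is one replicate's B-score; the combined score over replicates was not deposited, so single values may mislead.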 The numbers tell different reagents against one gene apart. A plus sign joins genes that one reagent is predicted to hit. Not all columns of the deposit are shown. No sequences are given here."}
{"Gene": "Eaat1 (Excitatory amino acid transporter 1)", "reagent no.": 1, "droplet/nuclear area B-score, replicate 1": 0.338}
{"Gene": "CG17385", "reagent no.": 1, "droplet/nuclear area B-score, replicate 1": 2.96}
{"Gene": "Cbp20 (cap binding protein 20)", "reagent no.": 1, "droplet/nuclear area B-score, replicate 1": -2.71}
{"Gene": "Herp (Homocysteine-induced endoplasmic reticulum protein)", "reagent no.": 1, "droplet/nuclear area B-score, replicate 1": 0.441}
{"Gene": "CG11241", "reagent no.": 1, "droplet/nuclear area B-score, replicate 1": 0.989}
{"Gene": "CG11241", "reagent no.": 2, "droplet/nuclear area B-score, replicate 1": -0.148}
{"Gene": "CG9284 (retired record)", "reagent no.": 1, "droplet/nuclear area B-score, replicate 1": 0.00608}
{"Gene": "CG9284 (retired record)", "reagent no.": 2, "droplet/nuclear area B-score, replicate 1": 0.188}
{"Gene": "CG11836", "reagent no.": 1, "droplet/nuclear area B-score, replicate 1": 0.57}
{"Gene": "CG5181", "reagent no.": 1, "droplet/nuclear area B-score, replicate 1": 1.01}
{"Gene": "Dic4", "reagent no.": 1, "droplet/nuclear area B-score, replicate 1": 0.762}
{"Gene": "CG13671", "reagent no.": 1, "droplet/nuclear area B-score, replicate 1": -0.776}
{"Gene": "prim (primacord)", "reagent no.": 1, "droplet/nuclear area B-score, replicate 1": -0.367}
{"Gene": "Acat2 (Acetyl-CoA acetyltransferase 2)", "reagent no.": 1, "droplet/nuclear area B-score, replicate 1": 0.24}
{"Gene": "eIF2A (eukaryotic translation initiation factor 2A)", "reagent no.": 1, "droplet/nuclear area B-score, replicate 1": 0.433}
{"Gene": "Opbp (Optix-binding protein)", "reagent no.": 1, "droplet/nuclear area B-score, replicate 1": -0.286}
{"Gene": "Clp (Clipper)", "reagent no.": 1, "droplet/nuclear area B-score, replicate 1": -0.16}
{"Gene": "moon (moonshiner)", "reagent no.": 1, "droplet/nuclear area B-score, replicate 1": 0.01}
{"Gene": "Sumo (Small ubiquitin like modifier)", "reagent no.": 1, "droplet/nuclear area B-score, replicate 1": 4.33}
{"Gene": "frac (faulty attraction)", "reagent no.": 1, "droplet/nuclear area B-score, replicate 1": -0.486}
{"Gene": "Nup44A (Nucleoporin at 44A)", "reagent no.": 1, "droplet/nuclear area B-score, replicate 1": 0.267}
{"Gene": "CG8249", "reagent no.": 1, "droplet/nuclear area B-score, replicate 1": -1.47}
{"Gene": "CG13875", "reagent no.": 1, "droplet/nuclear area B-score, replicate 1": 0.187}
{"Gene": "Mst84B (Male-specific transcript 84B)", "reagent no.": 1, "droplet/nuclear area B-score, replicate 1": 0.105}
{"Gene": "CG4707", "reagent no.": 1, "droplet/nuclear area B-score, replicate 1": -0.405}
{"Gene": "CG6028", "reagent no.": 1, "droplet/nuclear area B-score, replicate 1": -1.38}
{"Gene": "CG10920", "reagent no.": 1, "droplet/nuclear area B-score, replicate 1": -0.712}
{"Gene": "Reps (RALBP1 associated Eps domain containing)", "reagent no.": 1, "droplet/nuclear area B-score, replicate 1": 0.097}
{"Gene": "nerfin-1 (nervous fingers 1)", "reagent no.": 1, "droplet/nuclear area B-score, replicate 1": -0.279}
{"Gene": "bif (bifocal)", "reagent no.": 1, "droplet/nuclear area B-score, replicate 1": -1.6}
{"Gene": "bif (bifocal)", "reagent no.": 2, "droplet/nuclear area B-score, replicate 1": -0.0461}
{"Gene": "CG7582", "reagent no.": 1, "droplet/nuclear area B-score, replicate 1": 0.79}
{"Gene": "CG34386", "reagent no.": 1, "droplet/nuclear area B-score, replicate 1": -0.188}
{"Gene": "CG34386", "reagent no.": 2, "droplet/nuclear area B-score, replicate 1": -0.797}
{"Gene": "CG34386", "reagent no.": 3, "droplet/nuclear area B-score, replicate 1": 1.47}
{"Gene": "Skp2 + CG1103", "reagent no.": 1, "droplet/nuclear area B-score, replicate 1": 0.952}
{"Gene": "Skp2 + CG1103", "reagent no.": 2, "droplet/nuclear area B-score, replicate 1": -0.0764}
{"Gene": "CG8435", "reagent no.": 1, "droplet/nuclear area B-score, replicate 1": -0.403}
{"Gene": "CG6660", "reagent no.": 1, "droplet/nuclear area B-score, replicate 1": 0.592}
{"Gene": "gammaTub23C (gamma-Tubulin at 23C)", "reagent no.": 1, "droplet/nuclear area B-score, replicate 1": -0.628}

3 entries already listed, arranged by “droplet/nuclear area B-score, replicate 1”, low to high:
{"Gene": "bif (bifocal)", "reagent no.": 1, "droplet/nuclear area B-score, replicate 1": -1.6}
{"Gene": "nerfin-1 (nervous fingers 1)", "reagent no.": 1, "droplet/nuclear area B-score, replicate 1": -0.279}
{"Gene": "Reps (RALBP1 associated Eps domain containing)", "reagent no.": 1, "droplet/nuclear area B-score, replicate 1": 0.097}
